# Experimental data from paper PMC7701572.
# By UniProt entry, the sequences of proteins in these tests, tags left out.
# UniProt Q96B97: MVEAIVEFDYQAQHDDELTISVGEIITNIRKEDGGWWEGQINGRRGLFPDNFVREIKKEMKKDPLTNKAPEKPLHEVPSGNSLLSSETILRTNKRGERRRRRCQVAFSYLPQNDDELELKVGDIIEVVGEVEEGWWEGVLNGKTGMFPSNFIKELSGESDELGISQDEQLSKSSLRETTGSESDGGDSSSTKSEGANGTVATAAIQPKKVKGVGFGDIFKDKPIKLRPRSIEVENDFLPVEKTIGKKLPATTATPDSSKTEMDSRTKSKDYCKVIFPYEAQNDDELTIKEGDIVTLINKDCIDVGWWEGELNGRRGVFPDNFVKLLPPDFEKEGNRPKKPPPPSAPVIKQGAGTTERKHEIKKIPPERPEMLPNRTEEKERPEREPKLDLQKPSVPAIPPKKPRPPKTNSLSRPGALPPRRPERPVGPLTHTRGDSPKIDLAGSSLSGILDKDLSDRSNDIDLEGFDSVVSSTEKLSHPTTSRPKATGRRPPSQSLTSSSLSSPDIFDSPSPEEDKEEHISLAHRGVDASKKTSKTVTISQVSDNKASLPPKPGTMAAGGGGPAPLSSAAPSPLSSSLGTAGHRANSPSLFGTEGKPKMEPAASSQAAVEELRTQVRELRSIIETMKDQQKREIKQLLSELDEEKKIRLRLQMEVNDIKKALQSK
# No constants are given. Whether binding was seen depends on the method and setting. Binding seen in cells or lysates may run through a third protein. Some results given as binding are weak or reduced against the parent protein; the word gives no strength.
# B1: ARAP1 (protein, UniProt Q96P48 1-1450)
# chain: MAEAGDAALSVAEWLRALHLEQYTGLFEQHGLVWATECQGLSDTRLMDMGMLLPGHRRRILAGLLRAHTSPAPAPRPTPRPVPMKRHIFRSPPVPATPPEPLPTTTEDEGLPAAPPIPPRRSCLPPTCFTTPSTAAPDPVLPPLPAKRHLAELSVPPVPPRTGPPRLLVSLPTKEEESLLPSLSSPPQPQSEEPLSTLPQGPPQPPSPPPCPPEIPPKPVRLFPEFDDSDYDEVPEEGPGAPARVMTKKEEPPPSRVPRAVRVASLLSEGEELSGDDQGDEEEDDHAYEGVPNGGWHTSSLSLSLPSTIAAPHPMDGPPGGSTPVTPVIKAGWLDKNPPQGSYIYQKRWVRLDTDHLRYFDSNKDAYSKRFISVACISHVAAIGDQKFEVITNNRTFAFRAESDVERKEWMQALQQAMAEQRARARLSSAYLLGVPGSEQPDRAGSLELRGFKNKLYVAVVGDKVQLYKNLEEYHLGIGITFIDMSVGNVKEVDRRSFDLTTPYRIFSFSADSELEKEQWLEAMQGAIAEALSTSEVAERIWAAAPNRFCADCGAPQPDWASINLCVVICKRCAGEHRGLGAGVSKVRSLKMDRKVWTETLIELFLQLGNGAGNRFWAANVPPSEALQPSSSPSTRRCHLEAKYREGKYRRYHPLFGNQEELDKALCAAVTTTDLAETQALLGCGAGINCFSGDPEAPTPLALAEQAGQTLQMEFLRNNRTTEVPRLDSMKPLEKHYSVVLPTVSHSGFLYKTASAGKLLQDRRAREEFSRRWCVLGDGVLSYFENERAVTPNGEIRASEIVCLAVPPPDTHGFEHTFEVYTEGERLYLFGLESAEQAHEWVKCIAKAFVPPLAEDLLARDFERLGRLPYKAGLSLQRAQEGWFSLSGSELRAVFPEGPCEEPLQLRKLQELSIQGDSENQVLVLVERRRTLYIQGERRLDFMGWLGAIQKAAASMGDTLSEQQLGDSDIPVIVYRCVDYITQCGLTSEGIYRKCGQTSKTQRLLESLRQDARSVHLKEGEQHVDDVSSALKRFLRDLPDGLFTRAQRLTWLEASEIEDEEEKVSRYRELLVRLPPVNRATVKALISHLYCVQCFSDTNQMNVHNLAIVFGPTLFQTDGQDYKAGRVVEDLINHYVVVFSVDEEELRKQREEITAIVKMRVAGTASGTQHAGDFICTVYLEEKKAETEQHIKVPASMTAEELTLEILDRRNVGIREKDYWTCFEVNEREEAERPLHFAEKVLPILHGLGTDSHLVVKKHQAMEAMLLYLASRVGDTKHGMMKFREDRSLLGLGLPSGGFHDRYFILNSSCLRLYKEVRSQRPWSGAPETSHRPEKEWPIKSLKVYLGVKKKLRPPTCWGFTVVHETEKHEKQQWYLCCDTQMELREWFATFLFVQHDGLVWPSEPSRVSRAVPEVRLGSVSLIPLRGSENEMRRSVAAFTADPLSLLRNV
# Target: CIN85 (human (endogenous in HK-2)) (UniProt Q96B97)
# Test: co-IP; endogenous proteins in HK-2 cells (normal-glucose and high-glucose conditions); antibodies anti-ARAP1 and anti-CIN85, IgG as negative control; performed as previously described (ref. 15)
binder,measurement,value
B1,binding,binds
